From a melanoma drug combination screen (doi:10.1371/journal.pone.0140310); values rounded.

All values are for the listed drug together with bexarotene (10 µM): C=C(c1ccc(C(=O)O)cc1)c1cc2c(cc1C)C(C)(C)CCC2(C)C

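Human melanoma cell lines in 1,536-well plates were treated with two drugs together for 72 h, then fixed, stained and imaged. Each value is the cleaved-PARP-positive fraction of nuclei relative to DMSO-treated wells, in %, so that 100 equals the control and higher values mean more apoptosis. Concentrations were fixed for each drug; these are the higher of two levels. No replicate spread is given; individual values may be noisy. Basal and induced levels differ widely between cell lines.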
An unselected part of the screen is shown.
An entry leaves out what has no value listed here.

With CN1CCN(c2ccc3nc(-c4c(N)c5c(F)cccc5[nH]c4=O)[nH]c3c2)CC1 at 0.5 µM the screen read COLO 792: 120; SK-MEL-28: 56.3; WM115: 33.3; C32: 119; RPMI-7951: 116; WM451Lu: 38.7; A375: 98.3; SK-MEL-2: 303.
With Cn1nnc2c(C(N)=O)ncn2c1=O at 10 µM the screen read COLO 792: 91.6; SK-MEL-28: 170; WM115: 87.2; C32: 343; RPMI-7951: 31.2; WM451Lu: 74.1; A375: 83.4; SK-MEL-2: 59.0.
With CN(C)S(=O)(=O)c1ccc2c(c1)/C(=C/c1cc3c([nH]1)CCCC3)C(=O)N2 at 2 µM the screen read COLO 792: 44.3; SK-MEL-28: 126; WM115: 77.7; C32: 39.3; RPMI-7951: 169; WM451Lu: 34.8; SK-MEL-2: 70.9.
With Nc1nc(F)nc2c1ncn2[C@@H]1O[C@H](CO)[C@@H](O)[C@@H]1O at 1 µM the screen read COLO 792: 163; SK-MEL-28: 393; WM115: 107; C32: 326; RPMI-7951: 93.5; WM451Lu: 80.5; A375: 161; SK-MEL-2: 1440.
With COC(=O)c1sccc1S(=O)(=O)Nc1ccc(Nc2ccccc2)cc1OC at 5 µM the screen read COLO 792: 119; SK-MEL-28: 102; WM115: 78.9; C32: 71.5; RPMI-7951: 155; WM451Lu: 158; A375: 21.9; SK-MEL-2: 74.7.
With CS(=O)(=O)c1ccc(C(=O)Nc2ccc(Cl)c(-c3ccccn3)c2)c(Cl)c1 at 5 µM the screen read COLO 792: 135; SK-MEL-28: 85.9; WM115: 56.4; C32: 232; RPMI-7951: 97.8; WM451Lu: 59.4; A375: 93.0; SK-MEL-2: 127.
With C[C@]1(O)C[C@@H](c2nc(-c3ccc4ccc(-c5ccccc5)nc4c3)c3c(N)nccn32)C1 at 2 µM the screen read COLO 792: 203; SK-MEL-28: 55.7; WM115: 94.3; C32: 589; RPMI-7951: 138; WM451Lu: 165; A375: 77.3; SK-MEL-2: 314.
With CC(C)CCN1c2nc(Nc3cc(F)c(O)c(F)c3)ncc2N(C)C(=O)C1C (stereo not shown) at 1 µM the screen read COLO 792: 103; SK-MEL-28: 154; WM115: 50.7; C32: 79.3; RPMI-7951: 334; WM451Lu: 32.2; A375: 118; SK-MEL-2: 182.
With COc1cc([C@@H]2c3cc4c(cc3[C@@H](O[C@@H]3O[C@@H]5CO[C@@H](C)O[C@H]5[C@H](O)[C@H]3O)[C@H]3COC(=O)[C@H]23)OCO4)cc(OC)c1O at 0.1 µM the screen read COLO 792: 81.2; SK-MEL-28: 263; WM115: 43.4; C32: 87.6; RPMI-7951: 174; WM451Lu: 168; A375: 81.5; SK-MEL-2: 229.
With O=C(Nc1cccc(Cl)c1)Nc1ncc(CCNc2ncnc3ccsc23)s1 at 0.004 µM the screen read COLO 792: 189; SK-MEL-28: 256; WM115: 92.6; C32: 198; RPMI-7951: 132; WM451Lu: 154; SK-MEL-2: 138.
With OCCn1cc(-c2cnc3nnn(Cc4ccc5ncccc5c4)c3n2)cn1 at 5 µM the screen read COLO 792: 174; SK-MEL-28: 134; WM115: 114; C32: 160; RPMI-7951: 115; WM451Lu: 51.5; SK-MEL-2: 147.
With O=C(Nc1ccccc1)c1cc([N+](=O)[O-])ccc1Cl at 10 µM the screen read COLO 792: 81.4; SK-MEL-28: 260; WM115: 222; C32: 73.9; RPMI-7951: 271; WM451Lu: 127; A375: 60.7; SK-MEL-2: 200.
With Cc1cn(-c2cc(NC(=O)c3ccc(C)c(Nc4nccc(-c5cccnc5)n4)c3)cc(C(F)(F)F)c2)cn1 at 1 µM the screen read COLO 792: 100; SK-MEL-28: 47.0; WM115: 37.5; C32: 85.8; RPMI-7951: 438; WM451Lu: 42.6; A375: 13.4; SK-MEL-2: 106.
With c1cc(-c2cnn3cc(-c4ccc(OCCN5CCCCC5)cc4)cnc23)ccn1 at 2 µM the screen read COLO 792: 61.2; SK-MEL-28: 44.8; WM115: 72.0; C32: 102; RPMI-7951: 134; WM451Lu: 142; A375: 224; SK-MEL-2: 28.5.
With NCC(=O)Nc1ccc(-n2nc(C(F)(F)F)cc2-c2ccc3c(ccc4ccccc43)c2)cc1 at 5 µM the screen read COLO 792: 27.1; SK-MEL-28: 930; WM115: 87.0; C32: 153; RPMI-7951: 78.7; WM451Lu: 56.3; SK-MEL-2: 692.
With Cn1c(Nc2ccc(C(F)(F)F)cc2)nc2cc(Oc3ccnc(-c4ncc(C(F)(F)F)[nH]4)c3)ccc21 at 0.4 µM the screen read COLO 792: 594; SK-MEL-28: 236; WM115: 509; C32: 112; RPMI-7951: 166; WM451Lu: 71.5; A375: 112; SK-MEL-2: 112.
With Cn1cc(C2=C(c3cn(C4CCN(Cc5ccccn5)CC4)c4ccccc34)C(=O)NC2=O)c2ccccc21 at 4 µM the screen read COLO 792: 157; SK-MEL-28: 172; WM115: 48.3; C32: 142; RPMI-7951: 99.9; WM451Lu: 37.4; A375: 85.5; SK-MEL-2: 614.
With CCN(CC)CCNC(=O)c1c(C)[nH]c(/C=C2\C(=O)Nc3ccc(F)cc32)c1C at 2 µM the screen read COLO 792: 150; SK-MEL-28: 52.3; WM115: 118; C32: 68.0; RPMI-7951: 334; WM451Lu: 172; A375: 25.9; SK-MEL-2: 93.2.

Some entries from above, unchanged:

| Partner | COLO 792 | SK-MEL-28 | WM115 | C32 | RPMI-7951 | WM451Lu | A375 | SK-MEL-2 |
|---|---|---|---|---|---|---|---|---|
| CN1CCN(c2ccc3nc(-c4c(N)c5c(F)cccc5[nH]c4=O)[nH]c3c2)CC1 at 0.5 µM | 120 | 56.3 | 33.3 | 119 | 116 | 38.7 | 98.3 | 303 |
| Cn1nnc2c(C(N)=O)ncn2c1=O at 10 µM | 91.6 | 170 | 87.2 | 343 | 31.2 | 74.1 | 83.4 | 59.0 |